Results of single-concentration screens

By UniProt entry, the sequences of proteins in these tests, tags left out. Residues count along the entry.
UniProt Q8IDJ8, 1-583: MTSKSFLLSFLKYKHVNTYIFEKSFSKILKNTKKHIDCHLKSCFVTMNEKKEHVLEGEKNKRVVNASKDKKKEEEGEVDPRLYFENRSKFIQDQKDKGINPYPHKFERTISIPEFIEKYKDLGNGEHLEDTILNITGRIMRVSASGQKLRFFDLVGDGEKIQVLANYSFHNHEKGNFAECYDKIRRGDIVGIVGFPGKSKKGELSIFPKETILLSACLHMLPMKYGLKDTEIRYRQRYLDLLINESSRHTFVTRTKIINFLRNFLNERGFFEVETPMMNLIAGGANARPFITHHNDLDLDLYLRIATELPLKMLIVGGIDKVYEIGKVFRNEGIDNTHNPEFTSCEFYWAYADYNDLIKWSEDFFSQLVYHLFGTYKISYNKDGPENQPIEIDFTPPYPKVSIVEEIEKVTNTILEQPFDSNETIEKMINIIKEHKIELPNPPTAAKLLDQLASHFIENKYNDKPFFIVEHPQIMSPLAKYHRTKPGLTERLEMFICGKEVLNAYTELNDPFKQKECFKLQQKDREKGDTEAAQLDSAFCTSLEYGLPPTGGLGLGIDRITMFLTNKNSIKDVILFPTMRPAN

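Lysine-tRNA ligase, Plasmodium falciparum 3D7 (UniProt Q8IDJ8). Enzyme assay of the cytosolic lysyl-tRNA synthetase in 384-well plates, read by luminescence. Tested at 30 µM. Higher reads as stronger inhibition, judged from the few compounds that gave an IC50. Of about 69,000 compounds tested this way, about 49 (0.071%) reached 50% or more in at least one test.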

Results are given as percent effect. The record does not define 0% and 100%; most values in the screen are far below 50% and negative numbers occur (in some assays of this library far below -100). The compounds are a random part of those screened.

{"compound": "Cn1ccc(C(=O)N2CCOC(c3ccccn3)C2)cc1=O", "stereo": "stereo unspecified", "Percent Effect": 0.5914}
{"compound": "Cc1cnn(CC(C)Nc2cnc3ccccc3n2)c1", "stereo": "stereo unspecified", "Percent Effect": 0.5922}
{"compound": "Cc1csc(C2CCCN(C(=O)c3cnc[nH]3)C2)n1", "stereo": "stereo unspecified", "Percent Effect": 5.418}
{"compound": "COc1cc(C(=O)NCCCc2ccccc2)on1", "Percent Effect": -1.754}
{"compound": "CS(=O)(=O)N1CC[C@]2(O)CCN(c3ccnc(N)n3)C[C@@H]2C1", "Percent Effect": 0.2079}
{"compound": "O=C(NC1CCCC1)[C@@H]1CN(Cc2nccs2)C[C@H]2OCC[C@H]21", "Percent Effect": -5.303}
{"compound": "CCOC1COC2(CCN(S(=O)(=O)c3ccc(F)cc3)CC2)C1", "stereo": "stereo unspecified", "Percent Effect": 7.284}
{"compound": "COc1ccsc1C(=O)Nc1cc(Br)c(=O)n(C)c1", "Percent Effect": 4.833}
{"compound": "Cn1cncc1-c1nnc([C@H]2CCN(Cc3ncc[nH]3)C2)o1", "Percent Effect": -0.7183}
{"compound": "Cc1nnc2n1CC(CNc1cnc3ccccc3n1)CC2", "stereo": "stereo unspecified", "Percent Effect": -2.478}
{"compound": "OCc1ccccc1CNCC1CNc2ccnn2C1", "stereo": "stereo unspecified", "Percent Effect": 0.1828}
{"compound": "COCC1CN(CC2CC2)Cc2nn(CC3CC3)cc21", "stereo": "stereo unspecified", "Percent Effect": 3.647}
{"compound": "COCC(=O)N1CCC(c2nccnc2Oc2cccnc2C)CC1", "Percent Effect": 2.419}
{"compound": "Cc1cc(C(=O)N2CC[C@H]3C[C@H](c4ccncn4)O[C@@H]3C2)c(C)[nH]1", "Percent Effect": 7.638}
{"compound": "COc1cc(C)nc(N2CCN(C(=O)COCC3CC3)CC2)n1", "Percent Effect": 3.242}
{"compound": "CNc1cncc(C2CCCN2C(=O)c2ccc3oc(=O)n(C)c3c2)n1", "stereo": "stereo unspecified", "Percent Effect": 3.054}
{"compound": "CC(C)(C)CN(CCC#N)C(=O)Cc1ccc(-n2cnnn2)cc1", "Percent Effect": 8.699}
{"compound": "Cc1cc(C)n(CC2CN(CC(=O)NC3CCCC3)CCO2)n1", "stereo": "stereo unspecified", "Percent Effect": -5.785}
{"compound": "CC(C)c1nnc2n1CCN(C(=O)c1cc(Cl)c[nH]1)C2", "Percent Effect": 0.5737}
{"compound": "Cc1cc(-c2cncnc2)ccc1OCC(N)=O", "Percent Effect": 1.723}
{"compound": "O=C(NCCO)C1(Cc2ccccc2-c2ccncc2)CCOCC1", "Percent Effect": 0.1216}
{"compound": "C[C@@H]1CN(C(=O)c2cc(COc3ccc4c(c3)OCO4)[nH]n2)C[C@H](C)O1", "Percent Effect": 3.388}
{"compound": "Cc1cc(O)nc(C2CCCN(Cc3ccncc3)C2)n1", "stereo": "stereo unspecified", "Percent Effect": 4.019}
{"compound": "COc1ccc(N(C)C(=O)c2ccc(Cl)c(S(C)(=O)=O)c2)cn1", "Percent Effect": 0.09162}
{"compound": "CN1CC(=O)N(c2ccsc2)CC12CCN(S(=O)(=O)c1ccccc1)C2", "stereo": "stereo unspecified", "Percent Effect": -1.426}
{"compound": "CCc1c(C)nc2n(c1=O)CC(C(=O)Nc1nccs1)CS2", "stereo": "stereo unspecified", "Percent Effect": -2.71}
{"compound": "O=C(CCCNCc1ccc(Cl)c2cccnc12)NC1CC1", "Percent Effect": 4.788}
{"compound": "Cc1cnn(CCNC(C)c2nnc(-c3cccc(Cl)c3)o2)c1", "stereo": "stereo unspecified", "Percent Effect": 4.527}
{"compound": "Cc1ccccc1C(=O)N1C[C@@H]2COC[C@]2(COCc2cccnc2)C1", "Percent Effect": -3.554}
{"compound": "Cc1nsc(N2CCN(CC(=O)NCc3cccnc3)CC2)n1", "Percent Effect": 1.655}
{"compound": "Cc1cccc(N2CCN(C(=O)CCCC(=O)N(C)C)C(C)C2)n1", "stereo": "stereo unspecified", "Percent Effect": 3.345}
{"compound": "Cc1noc(CCCC(=O)NC(C)c2cccnc2)n1", "stereo": "stereo unspecified", "Percent Effect": 4.402}
{"compound": "CC(C)C(=O)N1CCC(Cc2nccnc2Nc2ccccn2)CC1", "Percent Effect": 4.754}
{"compound": "COc1ccc2cccc(CC(=O)NCCc3n[nH]c(=O)[nH]3)c2c1", "Percent Effect": 4.473}
{"compound": "Cc1cc(C(=O)N2CCCC(C)C2)ccc1NCc1nc(C(C)C)no1", "stereo": "stereo unspecified", "Percent Effect": -1.206}
{"compound": "Cc1nn(C)c(C)c1C1CCCN1Cc1cn2ccsc2n1", "stereo": "stereo unspecified", "Percent Effect": 3.174}
{"compound": "Cc1nc(CCCNC(=O)c2c(F)cc(F)cc2F)n[nH]1", "Percent Effect": 2.734}
{"compound": "CCS(=O)(=O)NC1CCCN(c2cc(C)ccc2F)C1=O", "stereo": "stereo unspecified", "Percent Effect": 3.813}
{"compound": "Cc1cc(C)nc(NCCC(=O)Nc2ccc(Cn3cncn3)cc2)n1", "Percent Effect": 2.345}

Once more, the final 3:

compound	Percent Effect
Cc1nc(CCCNC(=O)c2c(F)cc(F)cc2F)n[nH]1	2.734
CCS(=O)(=O)NC1CCCN(c2cc(C)ccc2F)C1=O (stereo unspecified)	3.813
Cc1cc(C)nc(NCCC(=O)Nc2ccc(Cn3cncn3)cc2)n1	2.345

From ChEMBL document CHEMBL3988442, “University of Dundee, Small-Polar-MMV Screening Library” (2021).